39 sequences from article PMC7862700 can be followed below.

Some of the results follow. The source does not settle which construct or isoform was used.

The test has as its target T1, ETS1 (UniProt P14921).
T1 sequence: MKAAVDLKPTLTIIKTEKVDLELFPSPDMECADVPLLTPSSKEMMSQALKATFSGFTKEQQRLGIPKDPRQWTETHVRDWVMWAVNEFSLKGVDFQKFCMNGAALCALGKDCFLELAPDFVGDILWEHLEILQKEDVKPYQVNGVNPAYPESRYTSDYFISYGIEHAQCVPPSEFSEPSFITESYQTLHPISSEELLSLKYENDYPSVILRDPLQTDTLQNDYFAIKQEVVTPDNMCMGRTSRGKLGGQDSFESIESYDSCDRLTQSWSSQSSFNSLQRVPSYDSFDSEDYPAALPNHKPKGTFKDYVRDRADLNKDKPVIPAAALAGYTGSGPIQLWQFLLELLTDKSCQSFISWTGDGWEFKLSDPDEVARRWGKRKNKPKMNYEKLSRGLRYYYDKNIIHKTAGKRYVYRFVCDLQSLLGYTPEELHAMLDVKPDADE
Nature of the test: DAPPL (digital affinity profiling via proximity ligation, sequencing). The conditions noted are these: 10 mM Tris-HCl pH 7.5, 50 mM NaCl, 1 mM DTT, 4% glycerol, room temperature, 30 min; GST-TFs on glutathione beads, 16-mer random dsDNA library, 0.1% …; high values mean tight binding; double strand, one strand shown; scale: fold enrichment (6-mer frequency, TF over GST control).
The sequence GCATCC displayed a binding signal of 1.53.

For the sequence TCTGCT, the binding signal is 1.23.

In turn, TCTCGA yielded a binding signal of 1.4.

Turning to TCGCAA, the binding signal stood at 1.12.

The sequence ATTTCT registered a binding signal of 1.51.

Turning to ACACTT, the binding signal stood at 1.66.

GTAAAA displayed a binding signal of 1.13.

In the case of GTTAAC, the binding signal was determined as 1.21.

Regarding TCCTAC, the binding signal turned out to be 1.47.

For the sequence GATACG, the binding signal was determined as 1.13.

Regarding CTTTTT, the binding signal worked out at 1.29.

With TTCATC, the binding signal was 1.25.

Take ATTAAT: the binding signal was found to be 1.29.

ATAGCA showed a binding signal of 1.16.

The sequence TTTCTC had a binding signal of 1.68.

For ATTGAC, the binding signal amounted to 1.25.

AGCTAC had a binding signal of 1.19.

TTTCAG came in with a binding signal of 1.33.

The sequence GTGCTT displayed a binding signal of 1.3.

As for CGTACT, the binding signal worked out at 1.25.

TAACCT gave a binding signal of 1.34.

As for TACTTC, the binding signal came out at 3.26.

In the case of AAATTA, the binding signal worked out at 1.24.

Regarding CGTCTA, the binding signal came out at 1.27.

TTGCAT: the binding signal was 1.48.

In turn, CGCCGA had a binding signal of 1.24.

TGCTAC showed a binding signal of 1.31.

Turning to CTGCCA, the binding signal was 1.05.

ACACGA: the binding signal was 1.09.

Take AGATTC: the binding signal was found to be 1.18.

Take GCTTTG: the binding signal is 1.19.

With CCTCAC, the binding signal amounted to 1.25.

GATGAA: the binding signal is 1.26.

TCTTGA registered a binding signal of 1.23.

GTCTTT came in with a binding signal of 1.16.

TTCCTG came in with a binding signal of 2.36.

AAGTAA returned a binding signal of 1.31.

Sequence GAATAC showed a binding signal of 1.03.

For TCTGGG, the binding signal came out at 1.24.
